The target in the assay is GPX4 (mouse (endogenous in 661W)). In words: co-IP; Pierce Crosslink Magnetic IP/Co-IP Kit; antibody cross-linked to magnetic beads with DSS, incubated with cell lysate for 2 hours at room temperature, eluate detected by western blotting; lysate of atRAL-loaded 661W cells; which protein was precipitated is not told. On the technique in general: Immunoblotting shows a protein as a band on a membrane.

This is an account of results in publication PMC12631243.

These are yes or no findings as the source states them, for the method shown. In cells and extracts the contact can be indirect.

B1: GSDME-N (N-terminal fragment of gasdermin E) (domain or fragment, UniProt Q9Z2D3 1-270)
chain: MFAKATRNFLKEVDAGGDLISVSHLNDSDKLQLLSLVTKKKRYWCWQRPKYQILSATLEDVLTEGHCLSPVVVESDFVKYESKCENHKSGAIGTVVGKVKLNVGGKGVVESHSSFGTLRKQEVDVQQLIQDAVKRTVNMDNLVLQQVLESRNEVLCVLTQKIMTTQKCVISEHVQSEETCGGMVGIQTKTIQVSATEDGTVTTDTNVVLEIPAATTIAYGIMELFVKQDGQFEFCLLQGKHGGFEHERKLDSVYLDPLAYREFAFLDMLD
As to B1, the binding entry is “no binding”.
